Laboratory results taken from paper PMC8593071.
These are yes or no findings as the source states them, for the method shown. Binding seen in cells or lysates may run through a third protein. Some binding calls cover weakened binding; strength is not graded here.

Protein sequences, listed by entry. Tags and fused reporters are not part of them.
UniProt Q91XJ1: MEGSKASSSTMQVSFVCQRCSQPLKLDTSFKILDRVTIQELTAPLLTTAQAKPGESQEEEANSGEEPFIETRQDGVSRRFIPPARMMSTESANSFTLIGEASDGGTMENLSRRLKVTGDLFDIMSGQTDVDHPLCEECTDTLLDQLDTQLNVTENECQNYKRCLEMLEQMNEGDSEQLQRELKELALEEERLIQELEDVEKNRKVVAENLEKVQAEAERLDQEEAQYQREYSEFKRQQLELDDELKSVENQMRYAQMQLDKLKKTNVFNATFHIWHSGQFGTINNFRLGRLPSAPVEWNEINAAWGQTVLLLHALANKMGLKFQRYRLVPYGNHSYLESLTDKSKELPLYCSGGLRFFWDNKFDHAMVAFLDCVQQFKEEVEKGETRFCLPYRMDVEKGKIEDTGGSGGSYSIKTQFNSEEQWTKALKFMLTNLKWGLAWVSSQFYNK

Target: Beclin1 (rat (endogenous in primary cortical neurons)) (UniProt Q91XJ1)
Experiment: co-IP; lysates of primary rat cortical neurons, untreated or treated with 1.5 µM Aβ for 16 h (overnight); anti-Beclin1 antibody on protein A agarose, overnight at 4 °C, blot for Puma; reverse IP with Puma antibody, blot for Beclin1

- binding: binds
B1: Puma (p53 upregulated modulator of apoptosis) (protein, UniProt Q80ZG6 1-193)
chain: MARARQEGSSPEPVEGLARDSPRPFPLGRLMPSAVSCGLCEPGLPAAPAAPALLPAAYLCAPTAPPAVTAALGGPRWPGGHRSRPRGPRPDGPQPSLSPAQQHLESPVPSAPEALAGGPTQAAPGVRVEEEEWAREIGAQLRRMADDLNAQYERRRQEEQHRHRPSPWRVMYNLFMGLLPLPRDPGAPEMEPN
